Article PMC10857571
These are yes or no findings as the source states them, for the method shown. Binding seen in cells or lysates may run through a third protein. Some entries that bind do so weakly or less than the wild type. Each block holds one binder with its values, some of them ahead of it.

How the values were obtained:
Assay in all cases: co-IP; endogenous proteins in THP-1 cell lysates (100 μg protein), 2 μg antibody, TENDS buffer (20 mM Tris HCl pH 8.0, 1 mM EDTA, 2 mM DTT, 0.25 M sucrose), 4°C, protein A/G-agarose, immunoblot; cells exposed to vehicle, olaparib, oxLDL (100 μg/mL, 24 hr) or oxLDL with olaparib; normal rabbit IgG as control
[1] = target: RelA (p65) (human (endogenous in THP-1)), Q04206; conditions: remark: other sources report otherwise
[2] = target: T1, RelB (human (endogenous in THP-1)), Q01201; conditions: remark: other sources report otherwise
T1 chain: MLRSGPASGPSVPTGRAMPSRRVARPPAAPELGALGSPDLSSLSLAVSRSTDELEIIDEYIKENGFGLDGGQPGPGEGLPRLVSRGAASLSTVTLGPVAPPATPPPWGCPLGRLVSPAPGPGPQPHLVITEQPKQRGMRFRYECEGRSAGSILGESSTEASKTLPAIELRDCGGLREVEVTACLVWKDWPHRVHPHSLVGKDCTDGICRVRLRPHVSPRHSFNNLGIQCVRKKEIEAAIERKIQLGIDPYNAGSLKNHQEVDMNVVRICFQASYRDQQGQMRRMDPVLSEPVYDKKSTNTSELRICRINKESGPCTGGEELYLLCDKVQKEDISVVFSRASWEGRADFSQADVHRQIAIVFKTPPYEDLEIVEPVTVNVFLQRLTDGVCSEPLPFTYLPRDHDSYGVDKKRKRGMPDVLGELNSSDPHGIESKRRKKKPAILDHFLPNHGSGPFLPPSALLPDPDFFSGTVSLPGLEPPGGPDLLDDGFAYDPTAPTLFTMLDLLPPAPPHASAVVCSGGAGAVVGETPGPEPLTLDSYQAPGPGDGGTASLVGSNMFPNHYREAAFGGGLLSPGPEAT

[3] = target: IκBα (human (endogenous in THP-1)) (UniProt P25963)
[4] = target: T2, RelB (human (endogenous in THP-1)) (UniProt Q01201)
T2 sequence: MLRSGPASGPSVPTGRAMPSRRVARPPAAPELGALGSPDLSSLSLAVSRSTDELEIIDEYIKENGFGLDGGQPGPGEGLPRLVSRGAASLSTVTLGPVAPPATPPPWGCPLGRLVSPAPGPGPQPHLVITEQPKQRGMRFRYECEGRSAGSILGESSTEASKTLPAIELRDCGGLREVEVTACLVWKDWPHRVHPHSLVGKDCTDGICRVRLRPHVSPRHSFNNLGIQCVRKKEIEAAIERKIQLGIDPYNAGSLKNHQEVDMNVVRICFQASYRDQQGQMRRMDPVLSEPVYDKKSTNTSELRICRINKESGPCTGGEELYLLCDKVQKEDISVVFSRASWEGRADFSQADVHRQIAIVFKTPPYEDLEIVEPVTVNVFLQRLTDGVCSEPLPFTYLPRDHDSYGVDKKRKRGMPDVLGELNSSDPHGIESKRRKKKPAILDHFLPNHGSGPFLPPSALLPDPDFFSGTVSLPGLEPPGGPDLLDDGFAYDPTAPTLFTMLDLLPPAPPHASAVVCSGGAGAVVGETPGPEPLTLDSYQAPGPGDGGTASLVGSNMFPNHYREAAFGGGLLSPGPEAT

[5] = target: T3, IκBα (human (endogenous in THP-1)), P25963; conditions: remark: other sources report otherwise
T3 chain: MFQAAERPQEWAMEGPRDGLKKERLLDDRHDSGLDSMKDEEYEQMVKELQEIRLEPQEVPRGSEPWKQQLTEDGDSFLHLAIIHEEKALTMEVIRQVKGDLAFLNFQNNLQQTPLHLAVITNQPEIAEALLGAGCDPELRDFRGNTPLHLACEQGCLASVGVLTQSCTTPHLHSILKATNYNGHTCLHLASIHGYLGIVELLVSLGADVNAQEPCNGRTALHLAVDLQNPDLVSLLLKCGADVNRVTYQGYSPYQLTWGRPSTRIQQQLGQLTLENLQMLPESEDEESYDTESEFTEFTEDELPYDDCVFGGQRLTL

binding [1]: binds | binding [2]: binds
B1: IκBα, P25963 1-317 (protein)
chain: MFQAAERPQEWAMEGPRDGLKKERLLDDRHDSGLDSMKDEEYEQMVKELQEIRLEPQEVPRGSEPWKQQLTEDGDSFLHLAIIHEEKALTMEVIRQVKGDLAFLNFQNNLQQTPLHLAVITNQPEIAEALLGAGCDPELRDFRGNTPLHLACEQGCLASVGVLTQSCTTPHLHSILKATNYNGHTCLHLASIHGYLGIVELLVSLGADVNAQEPCNGRTALHLAVDLQNPDLVSLLLKCGADVNRVTYQGYSPYQLTWGRPSTRIQQQLGQLTLENLQMLPESEDEESYDTESEFTEFTEDELPYDDCVFGGQRLTL

binding [3]: binds | binding [4]: binds
B2: NF-κB2 p52 (protein, UniProt Q00653 1-454)
chain: MESCYNPGLDGIIEYDDFKLNSSIVEPKEPAPETADGPYLVIVEQPKQRGFRFRYGCEGPSHGGLPGASSEKGRKTYPTVKICNYEGPAKIEVDLVTHSDPPRAHAHSLVGKQCSELGICAVSVGPKDMTAQFNNLGVLHVTKKNMMGTMIQKLQRQRLRSRPQGLTEAEQRELEQEAKELKKVMDLSIVRLRFSAFLRASDGSFSLPLKPVISQPIHDSKSPGASNLKISRMDKTAGSVRGGDEVYLLCDKVQKDDIEVRFYEDDENGWQAFGDFSPTDVHKQYAIVFRTPPYHKMKIERPVTVFLQLKRKRGGDVSDSKQFTYYPLVEDKEEVQRKRRKALPTFSQPFGGGSHMGGGSGGAAGGYGGAGGGGSLGFFPSSLAYSPYQSGAGPMGCYPGGGGGAQMAATVPSRDSGEEAAEPSAPSRTPQCEPQAPEMLQRAREYNARLFGLA

binding [5]: binds
B3: RelB, Q01201 1-579 (protein)
chain: MLRSGPASGPSVPTGRAMPSRRVARPPAAPELGALGSPDLSSLSLAVSRSTDELEIIDEYIKENGFGLDGGQPGPGEGLPRLVSRGAASLSTVTLGPVAPPATPPPWGCPLGRLVSPAPGPGPQPHLVITEQPKQRGMRFRYECEGRSAGSILGESSTEASKTLPAIELRDCGGLREVEVTACLVWKDWPHRVHPHSLVGKDCTDGICRVRLRPHVSPRHSFNNLGIQCVRKKEIEAAIERKIQLGIDPYNAGSLKNHQEVDMNVVRICFQASYRDQQGQMRRMDPVLSEPVYDKKSTNTSELRICRINKESGPCTGGEELYLLCDKVQKEDISVVFSRASWEGRADFSQADVHRQIAIVFKTPPYEDLEIVEPVTVNVFLQRLTDGVCSEPLPFTYLPRDHDSYGVDKKRKRGMPDVLGELNSSDPHGIESKRRKKKPAILDHFLPNHGSGPFLPPSALLPDPDFFSGTVSLPGLEPPGGPDLLDDGFAYDPTAPTLFTMLDLLPPAPPHASAVVCSGGAGAVVGETPGPEPLTLDSYQAPGPGDGGTASLVGSNMFPNHYREAAFGGGLLSPGPEAT
